This data set has as its target human serum albumin (HSA) (Homo sapiens) (UniProt P02768). The experiment in a line: graphene oxide fluorescence quenching/recovery (aptamer released from GO by HSA). To be noted: reduced graphene oxide, LOD 0.05 ug/mL HSA, range 0.1-600 ug/mL (not a Kd); PBS (137 mM NaCl, 2.7 mM KCl, 10 mM Na2HPO4, 1.8 mM KH2PO4, pH 7.4), 25 C, 30 min; 15 uL of 5 mg/mL GO + 15 uL of 5 uM aptamer in 200 uL; commercial protein; label: 5'-Cy5; single-stranded DNA.

These results are taken from PMC7644748.

Construct, isoform or probe ends are uncertain for at least one entry. At least one verdict was read from the data and is not stated in words by the source.

As to “ATACCAGCTTATTCAATTCCCCCGGCTTTGGTTTAGAGGTAGTTGCTCATTACTTGTACGCTCCGGATGAGATAGTAAGTGCAATCT [H8 aptamer (Cy5-labeled)]”, the binding result is “binds”.
